Experimental data taken from patent US8536191B2 (priority 2010, dated 2013).

## Cl.Oc1ccc2c3c1O[C@H]1[C@@H](O)CC[C@@]4(O)[C@@H](C2)N(CC2CCC2)CC[C@]314 [Form A]
50% RH or above
  form change when exposed to elevated relative humidity: converts to Form C (monohydrate)
Sorption 5% to 95% RH, then desorption 95% to 5% RH, 25° C.
  form obtained after dynamic vapor sorption and desorption: Form C
